{
  "sequences": {"note": "The chains behind the UniProt entries cited, without tags or fusion partners.", "UniProt Q9BTU6": "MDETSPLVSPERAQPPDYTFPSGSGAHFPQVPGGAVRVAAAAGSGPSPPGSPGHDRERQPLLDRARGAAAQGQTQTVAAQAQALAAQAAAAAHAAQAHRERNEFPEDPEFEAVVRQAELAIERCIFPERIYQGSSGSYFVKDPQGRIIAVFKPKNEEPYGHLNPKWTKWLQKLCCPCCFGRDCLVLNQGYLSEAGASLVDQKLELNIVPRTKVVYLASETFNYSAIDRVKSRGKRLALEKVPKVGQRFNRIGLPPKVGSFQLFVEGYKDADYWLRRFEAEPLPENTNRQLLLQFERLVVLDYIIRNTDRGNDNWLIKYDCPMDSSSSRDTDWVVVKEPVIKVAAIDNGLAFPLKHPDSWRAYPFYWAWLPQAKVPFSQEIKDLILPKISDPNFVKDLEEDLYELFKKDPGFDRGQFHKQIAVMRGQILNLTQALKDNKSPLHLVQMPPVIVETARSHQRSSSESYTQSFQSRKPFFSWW"},
  "source": "paper PMC9715632",
  "molecular_target": "T1, RAB22A (human (endogenous in HeLa)) (UniProt Q9UL26)",
  "T1 sequence": "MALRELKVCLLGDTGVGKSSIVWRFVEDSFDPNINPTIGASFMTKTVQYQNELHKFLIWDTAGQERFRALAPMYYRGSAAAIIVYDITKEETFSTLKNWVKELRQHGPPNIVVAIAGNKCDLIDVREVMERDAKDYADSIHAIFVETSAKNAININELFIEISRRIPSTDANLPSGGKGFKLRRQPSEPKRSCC",
  "test": "co-IP; endogenous proteins, HeLa lysate, anti-RAB22A antibody or control IgG with protein A or A/G agarose, RIPA buffer, 6 h at 4 °C, five washes",
  "note": "No constants are given. Whether binding was seen depends on the method and setting. Binding seen in cells or lysates may run through a third protein. Some entries that bind do so weakly or less than the wild type.",
  "data": [
    {"substance": "PI4K2A (from UniProt Q9BTU6 1-479) (enzyme)", "values": [
      {"measurement": "binding", "value": "binds"}
    ]}
  ]
}
